From the supplement of paper PMC12823440, “Inhibitors supercharge kinase turnover through native proteolytic circuits” (Nature, 2025)
The other results are listed elsewhere or left out. The calls rarely recur for the same compound in another form.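 In K562 cells expressing nanoluciferase-fused kinases, luminescence was recorded at 4 h intervals between 2 and 18 h, normalized as percent of control with DMSO at 100% and a positive control at 0%. A significant (2 sigma) signal drop marks a time point as decreased. The authors' rule for a hit is not shown and takes in more than the number of time points.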

The chains behind the UniProt entries cited, without tags or fusion partners. Where a name states a change or a piece, a line headed by the entry shows the natural chain unless it says otherwise.
UniProt Q15208: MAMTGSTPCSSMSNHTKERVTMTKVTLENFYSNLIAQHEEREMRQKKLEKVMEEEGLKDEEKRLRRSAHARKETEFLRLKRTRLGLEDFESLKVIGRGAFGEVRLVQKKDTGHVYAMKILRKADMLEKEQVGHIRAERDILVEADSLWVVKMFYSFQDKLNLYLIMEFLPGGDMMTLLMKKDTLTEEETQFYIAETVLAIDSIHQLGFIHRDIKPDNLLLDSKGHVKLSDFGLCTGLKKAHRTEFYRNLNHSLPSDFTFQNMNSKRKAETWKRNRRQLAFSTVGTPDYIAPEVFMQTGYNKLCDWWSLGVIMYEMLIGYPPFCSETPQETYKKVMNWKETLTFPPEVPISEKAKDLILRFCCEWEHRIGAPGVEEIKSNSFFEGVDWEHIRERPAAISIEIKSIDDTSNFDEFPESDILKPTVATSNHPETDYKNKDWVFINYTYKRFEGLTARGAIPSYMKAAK
UniProt P42680: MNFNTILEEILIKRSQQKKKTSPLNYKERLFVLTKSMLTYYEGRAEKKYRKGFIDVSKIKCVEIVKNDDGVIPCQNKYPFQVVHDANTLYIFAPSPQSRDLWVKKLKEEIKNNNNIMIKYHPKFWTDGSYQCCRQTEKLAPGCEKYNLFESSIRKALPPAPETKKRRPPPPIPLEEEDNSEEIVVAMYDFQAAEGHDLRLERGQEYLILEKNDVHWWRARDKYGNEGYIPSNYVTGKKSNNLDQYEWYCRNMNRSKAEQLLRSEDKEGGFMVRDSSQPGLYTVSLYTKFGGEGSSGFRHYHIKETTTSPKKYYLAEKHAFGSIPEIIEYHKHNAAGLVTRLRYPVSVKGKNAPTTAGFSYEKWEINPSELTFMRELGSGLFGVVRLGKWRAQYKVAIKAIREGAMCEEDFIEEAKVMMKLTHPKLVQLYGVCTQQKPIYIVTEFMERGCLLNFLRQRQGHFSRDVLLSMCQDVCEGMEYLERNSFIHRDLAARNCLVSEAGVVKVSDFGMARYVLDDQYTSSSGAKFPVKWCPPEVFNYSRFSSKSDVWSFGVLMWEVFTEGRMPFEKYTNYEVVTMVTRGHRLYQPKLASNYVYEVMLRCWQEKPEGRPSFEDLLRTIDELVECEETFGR
UniProt P29597: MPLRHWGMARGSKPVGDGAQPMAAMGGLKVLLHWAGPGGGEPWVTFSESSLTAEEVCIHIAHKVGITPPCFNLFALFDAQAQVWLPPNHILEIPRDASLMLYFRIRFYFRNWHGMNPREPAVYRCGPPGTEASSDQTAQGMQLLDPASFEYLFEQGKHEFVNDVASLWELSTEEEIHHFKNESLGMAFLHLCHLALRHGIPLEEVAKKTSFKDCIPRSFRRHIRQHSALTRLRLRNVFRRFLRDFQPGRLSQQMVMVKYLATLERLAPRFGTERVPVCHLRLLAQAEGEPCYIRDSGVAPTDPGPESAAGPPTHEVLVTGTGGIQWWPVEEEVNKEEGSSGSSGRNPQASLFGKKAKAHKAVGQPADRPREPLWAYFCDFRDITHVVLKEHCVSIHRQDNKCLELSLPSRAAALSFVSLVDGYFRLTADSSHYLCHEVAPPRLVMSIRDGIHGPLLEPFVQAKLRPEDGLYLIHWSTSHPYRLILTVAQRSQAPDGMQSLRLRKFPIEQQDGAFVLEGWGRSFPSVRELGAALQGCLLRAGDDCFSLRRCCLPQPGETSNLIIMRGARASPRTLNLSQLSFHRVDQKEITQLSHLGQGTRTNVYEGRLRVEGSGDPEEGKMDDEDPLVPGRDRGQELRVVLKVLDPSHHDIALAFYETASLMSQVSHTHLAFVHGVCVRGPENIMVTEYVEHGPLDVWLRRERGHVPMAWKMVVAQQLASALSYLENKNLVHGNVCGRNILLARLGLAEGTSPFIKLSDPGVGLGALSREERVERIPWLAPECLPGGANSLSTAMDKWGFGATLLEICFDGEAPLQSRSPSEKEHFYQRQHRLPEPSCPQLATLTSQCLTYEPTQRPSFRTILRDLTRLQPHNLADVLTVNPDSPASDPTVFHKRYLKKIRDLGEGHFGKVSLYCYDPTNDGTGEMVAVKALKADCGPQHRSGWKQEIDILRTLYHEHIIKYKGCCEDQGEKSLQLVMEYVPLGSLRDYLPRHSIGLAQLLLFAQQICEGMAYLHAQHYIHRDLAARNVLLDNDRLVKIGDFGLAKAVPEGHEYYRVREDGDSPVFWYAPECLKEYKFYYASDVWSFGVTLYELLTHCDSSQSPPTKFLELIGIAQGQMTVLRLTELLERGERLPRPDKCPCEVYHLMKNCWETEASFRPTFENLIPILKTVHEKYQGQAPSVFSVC
UniProt Q6PHR2: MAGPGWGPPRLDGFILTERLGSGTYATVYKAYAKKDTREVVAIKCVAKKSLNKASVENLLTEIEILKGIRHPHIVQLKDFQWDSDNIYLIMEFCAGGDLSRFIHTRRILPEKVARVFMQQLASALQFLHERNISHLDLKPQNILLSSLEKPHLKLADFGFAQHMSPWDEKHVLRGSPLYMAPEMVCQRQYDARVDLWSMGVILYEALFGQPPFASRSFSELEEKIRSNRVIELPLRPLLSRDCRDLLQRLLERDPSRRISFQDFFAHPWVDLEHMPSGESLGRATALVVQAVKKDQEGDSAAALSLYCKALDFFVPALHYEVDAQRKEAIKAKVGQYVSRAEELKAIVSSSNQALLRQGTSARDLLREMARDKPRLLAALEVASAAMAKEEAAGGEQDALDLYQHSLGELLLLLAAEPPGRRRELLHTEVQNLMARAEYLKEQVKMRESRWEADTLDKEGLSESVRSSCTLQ
UniProt P07947, whole entry, looked up: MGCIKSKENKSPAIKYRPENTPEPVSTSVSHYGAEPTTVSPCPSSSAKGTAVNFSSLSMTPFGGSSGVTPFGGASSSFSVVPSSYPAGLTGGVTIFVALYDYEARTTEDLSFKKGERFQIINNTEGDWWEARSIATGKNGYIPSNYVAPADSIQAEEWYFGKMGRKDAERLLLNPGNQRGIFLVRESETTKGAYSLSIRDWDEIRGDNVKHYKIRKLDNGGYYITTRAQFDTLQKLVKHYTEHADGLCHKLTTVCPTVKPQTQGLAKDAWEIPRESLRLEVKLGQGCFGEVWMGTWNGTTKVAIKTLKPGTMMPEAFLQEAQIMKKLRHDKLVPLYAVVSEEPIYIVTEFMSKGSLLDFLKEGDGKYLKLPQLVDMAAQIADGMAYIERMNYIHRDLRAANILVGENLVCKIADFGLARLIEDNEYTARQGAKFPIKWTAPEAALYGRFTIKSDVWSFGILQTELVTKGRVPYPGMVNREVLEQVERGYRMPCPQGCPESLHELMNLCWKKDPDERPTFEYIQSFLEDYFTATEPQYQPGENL
UniProt P43403: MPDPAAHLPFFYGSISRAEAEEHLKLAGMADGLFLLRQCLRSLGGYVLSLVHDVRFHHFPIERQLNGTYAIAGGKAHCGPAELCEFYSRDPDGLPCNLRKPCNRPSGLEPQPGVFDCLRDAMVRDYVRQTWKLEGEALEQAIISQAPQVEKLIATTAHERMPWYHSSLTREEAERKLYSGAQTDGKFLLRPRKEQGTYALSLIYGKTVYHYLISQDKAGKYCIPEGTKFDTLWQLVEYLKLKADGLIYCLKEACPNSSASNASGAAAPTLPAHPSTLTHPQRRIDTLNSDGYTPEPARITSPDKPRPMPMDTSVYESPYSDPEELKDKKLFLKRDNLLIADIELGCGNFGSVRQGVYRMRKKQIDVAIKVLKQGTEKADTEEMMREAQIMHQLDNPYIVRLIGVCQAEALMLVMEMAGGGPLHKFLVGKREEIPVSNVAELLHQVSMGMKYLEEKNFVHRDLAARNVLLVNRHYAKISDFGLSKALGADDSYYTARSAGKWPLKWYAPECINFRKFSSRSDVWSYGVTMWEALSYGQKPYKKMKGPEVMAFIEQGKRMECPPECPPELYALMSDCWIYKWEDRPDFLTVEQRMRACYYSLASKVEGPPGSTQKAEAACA
UniProt P00519, whole entry: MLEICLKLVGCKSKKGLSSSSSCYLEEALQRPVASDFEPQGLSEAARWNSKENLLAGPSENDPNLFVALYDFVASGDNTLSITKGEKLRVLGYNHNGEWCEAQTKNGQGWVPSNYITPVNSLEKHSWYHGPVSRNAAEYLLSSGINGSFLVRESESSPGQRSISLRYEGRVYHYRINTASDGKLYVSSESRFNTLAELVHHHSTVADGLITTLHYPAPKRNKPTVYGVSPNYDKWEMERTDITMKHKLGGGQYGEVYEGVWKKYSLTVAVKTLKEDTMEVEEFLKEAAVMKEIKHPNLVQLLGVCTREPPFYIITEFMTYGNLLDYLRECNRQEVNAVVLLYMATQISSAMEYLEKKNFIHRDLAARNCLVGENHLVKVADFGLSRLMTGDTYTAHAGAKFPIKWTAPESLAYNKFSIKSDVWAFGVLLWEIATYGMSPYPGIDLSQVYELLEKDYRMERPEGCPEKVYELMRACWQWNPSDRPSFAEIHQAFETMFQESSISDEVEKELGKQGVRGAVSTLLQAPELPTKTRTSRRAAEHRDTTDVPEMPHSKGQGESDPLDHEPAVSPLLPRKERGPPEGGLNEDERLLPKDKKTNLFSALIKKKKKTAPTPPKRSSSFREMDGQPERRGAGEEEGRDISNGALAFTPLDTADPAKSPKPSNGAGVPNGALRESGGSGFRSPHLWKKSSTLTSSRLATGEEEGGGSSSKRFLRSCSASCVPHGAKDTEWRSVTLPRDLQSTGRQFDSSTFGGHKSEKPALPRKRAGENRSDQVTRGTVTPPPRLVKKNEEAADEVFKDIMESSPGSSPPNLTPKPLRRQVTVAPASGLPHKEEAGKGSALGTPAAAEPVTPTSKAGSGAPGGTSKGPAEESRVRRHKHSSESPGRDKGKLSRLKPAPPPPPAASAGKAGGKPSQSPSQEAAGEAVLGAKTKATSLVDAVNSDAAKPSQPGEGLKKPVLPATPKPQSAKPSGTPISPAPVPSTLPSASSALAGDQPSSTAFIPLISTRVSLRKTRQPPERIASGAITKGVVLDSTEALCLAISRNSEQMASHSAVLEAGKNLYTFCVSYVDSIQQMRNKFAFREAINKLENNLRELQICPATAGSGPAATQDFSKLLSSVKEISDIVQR
UniProt P31749: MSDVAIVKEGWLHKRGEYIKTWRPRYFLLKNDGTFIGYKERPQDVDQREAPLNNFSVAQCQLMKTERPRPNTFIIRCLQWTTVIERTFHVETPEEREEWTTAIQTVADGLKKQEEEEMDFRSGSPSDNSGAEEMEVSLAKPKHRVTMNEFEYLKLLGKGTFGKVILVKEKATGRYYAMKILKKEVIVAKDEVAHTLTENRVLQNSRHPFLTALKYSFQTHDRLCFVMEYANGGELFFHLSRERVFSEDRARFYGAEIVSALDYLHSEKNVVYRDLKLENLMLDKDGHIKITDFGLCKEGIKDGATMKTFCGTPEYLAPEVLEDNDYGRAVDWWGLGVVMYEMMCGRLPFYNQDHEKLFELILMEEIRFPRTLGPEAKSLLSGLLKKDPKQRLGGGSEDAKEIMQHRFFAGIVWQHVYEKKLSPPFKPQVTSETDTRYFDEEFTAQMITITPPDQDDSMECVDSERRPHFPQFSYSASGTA

Tests used:
Settings in all cases: K562; 2-18 h
STK38 = STK38 (UniProt Q15208); assay: kinase-Nluc reporter destabilization hit call (1 = scored as downregulated) (binary); higher = compound decreases kinase abundance
SYK = SYK (UniProt P43405); assay: as above
TEC = TEC (UniProt P42680); assay: as above
TYK2 = TYK2 (UniProt P29597); assay: as above
ULK3 = ULK3 (UniProt Q6PHR2); assay: as above
YES1 = YES1 (UniProt P07947); assay: as above
ZAK = ZAK (UniProt Q9NYL2); assay: as above
ZAP70 = ZAP70 (UniProt P43403); assay: as above
ABL1 = ABL1 (UniProt P00519); assay: number of time points (of 5) at which kinase-Nluc abundance scored as decreased, DMSO-normalised (count); higher = more persistent destabilization
AKT1 = AKT1 (UniProt P31749); assay: as above

Row | Structure (SMILES) | kinase-Nluc reporter destabilization hit call (STK38) | kinase-Nluc reporter destabilization hit call (SYK) | kinase-Nluc reporter destabilization hit call (TEC) | kinase-Nluc reporter destabilization hit call (TYK2) | kinase-Nluc reporter destabilization hit call (ULK3) | kinase-Nluc reporter destabilization hit call (YES1) | kinase-Nluc reporter destabilization hit call (ZAK) | kinase-Nluc reporter destabilization hit call (ZAP70) | number of time points (ABL1) | number of time points (AKT1)
1 | COC(=O)N[C@@H](C)CNc1nccc(-c2cn(C(C)C)nc2-c2cc(Cl)cc(NS(C)(=O)=O)c2F)n1 [Encorafenib] (10 µM) | inactive: 0 | inactive: 0 | inactive: 0 | inactive: 0 | inactive: 0 | inactive: 0 | inactive: 0 | inactive: 0 | 0 | 0
2 | CNC(=O)c1cc(Oc2ccc3nc(N[C@@H]4CCCC[C@H]4O)sc3c2)ccn1 (10 µM) | inactive: 0 | inactive: 0 | inactive: 0 | inactive: 0 | inactive: 0 | inactive: 0 | inactive: 0 | inactive: 0 | 0 | 0
3 | CC(C)c1cnn2c(NCc3ccccc3-n3cccn3)nc(OC3CCCNC3)nc12 (stereo not given) (2.5 µM) | inactive: 0 | inactive: 0 | inactive: 0 | inactive: 0 | inactive: 0 | inactive: 0 | inactive: 0 | inactive: 0 | 0 | 0
4 | CCc1cccc(CC)c1NC(=O)c1nn(C)c2c1CCc1cnc(Nc3ccc(C(=O)NC4CCN(C)CC4)cc3OC(F)(F)F)nc1-2 (2 µM) | inactive: 0 | inactive: 0 | inactive: 0 | inactive: 0 | inactive: 0 | inactive: 0 | inactive: 0 | inactive: 0 | 0 | 0
5 | O=C(O)c1ccc(-c2c[nH]c3ncc(-c4ccccc4)cc23)cc1C1CCCC1 (2.5 µM) | inactive: 0 | inactive: 0 | inactive: 0 | inactive: 0 | inactive: 0 | inactive: 0 | inactive: 0 | inactive: 0 | 0 | 0
6 | C[C@@H]1CCc2ncc(F)cc2[C@H]2CCCN2c2ccn3ncc(c3n2)C(=O)N1 [Selitrectinib] (10 µM) | inactive: 0 | inactive: 0 | inactive: 0 | inactive: 0 | inactive: 0 | inactive: 0 | inactive: 0 | inactive: 0 | 0 | 0
7 | COc1ccc2c(c1OC)OC1c3ccc(O)cc3OCC21 (stereo not given) [Methylnissolin] (10 µM) | inactive: 0 | inactive: 0 | inactive: 0 | inactive: 0 | inactive: 0 | inactive: 0 | inactive: 0 | inactive: 0 | 0 | 0
8 | O=c1[nH]ccc2cc(OC3CCNCC3)ccc12 (10 µM) | inactive: 0 | inactive: 0 | inactive: 0 | inactive: 0 | inactive: 0 | inactive: 0 | inactive: 0 | inactive: 0 | 0 | 0
9 | CC1(N)CCN(c2cnc3c(-c4cccc(Cl)c4Cl)[nH]nc3n2)CC1 (2.5 µM) | inactive: 0 | inactive: 0 | inactive: 0 | inactive: 0 | inactive: 0 | inactive: 0 | inactive: 0 | inactive: 0 | 0 | 0
10 | Cn1ncc(Cl)c1-c1cc(C(=O)N[C@H](CN)Cc2ccc(F)c(F)c2)sc1Cl (10 µM) | inactive: 0 | inactive: 0 | inactive: 0 | inactive: 0 | inactive: 0 | inactive: 0 | inactive: 0 | inactive: 0 | 4 | 0
11 | CCN(C)C(=O)c1ccc2c(C(=Nc3ccc(CN4CCCCC4)cc3)c3ccccc3)c(O)[nH]c2c1 (2.5 µM) | inactive: 0 | inactive: 0 | inactive: 0 | inactive: 0 | inactive: 0 | inactive: 0 | inactive: 0 | inactive: 0 | 0 | 0
12 | Oc1ccccc1C(=S)N1CCCC1 (10 µM) | inactive: 0 | inactive: 0 | inactive: 0 | inactive: 0 | inactive: 0 | inactive: 0 | inactive: 0 | inactive: 0 | 0 | 0
13 | Fc1c(Br)cccc1Nc1ncnc2cc3c(cc12)OCCO3 (2.5 µM) | inactive: 0 | inactive: 0 | inactive: 0 | inactive: 0 | inactive: 0 | inactive: 0 | inactive: 0 | inactive: 0 | 1 | 0
14 | C=C[C@H]1[C@H](O[C@@H]2O[C@H](CO)[C@@H](O)[C@H](O)[C@H]2OC(=O)c2c(O)cc(O)cc2-c2cccc(O)c2)OC=C2C(=O)OCC[C@H]21 [Amarogentin] (10 µM) | inactive: 0 | inactive: 0 | inactive: 0 | inactive: 0 | inactive: 0 | inactive: 0 | inactive: 0 | inactive: 0 | 0 | 0
15 | COc1cc2ncnc(Nc3ccc(NC(=O)c4ccccc4)cc3)c2cc1OC [Aurora kinase inhibitor-2] (2.5 µM) | inactive: 0 | inactive: 0 | inactive: 0 | inactive: 0 | inactive: 0 | inactive: 0 | inactive: 0 | inactive: 0 | 0 | 0

An excerpt from above in order of number of heavy atoms, descending:
Row | Structure (SMILES) | kinase-Nluc reporter destabilization hit call (STK38) | kinase-Nluc reporter destabilization hit call (SYK) | kinase-Nluc reporter destabilization hit call (TEC) | kinase-Nluc reporter destabilization hit call (TYK2) | kinase-Nluc reporter destabilization hit call (ULK3) | kinase-Nluc reporter destabilization hit call (YES1) | kinase-Nluc reporter destabilization hit call (ZAK) | kinase-Nluc reporter destabilization hit call (ZAP70) | number of time points (ABL1) | number of time points (AKT1)
15 | COc1cc2ncnc(Nc3ccc(NC(=O)c4ccccc4)cc3)c2cc1OC [Aurora kinase inhibitor-2] (2.5 µM) | inactive: 0 | inactive: 0 | inactive: 0 | inactive: 0 | inactive: 0 | inactive: 0 | inactive: 0 | inactive: 0 | 0 | 0
6 | C[C@@H]1CCc2ncc(F)cc2[C@H]2CCCN2c2ccn3ncc(c3n2)C(=O)N1 [Selitrectinib] (10 µM) | inactive: 0 | inactive: 0 | inactive: 0 | inactive: 0 | inactive: 0 | inactive: 0 | inactive: 0 | inactive: 0 | 0 | 0
9 | CC1(N)CCN(c2cnc3c(-c4cccc(Cl)c4Cl)[nH]nc3n2)CC1 (2.5 µM) | inactive: 0 | inactive: 0 | inactive: 0 | inactive: 0 | inactive: 0 | inactive: 0 | inactive: 0 | inactive: 0 | 0 | 0
